# Assay results taken from the supplement of paper PMC3334620.
# Whole data set: some 33,000 sequences, median “E-score (-0.5 to 0.5)” near -0.0059, cut for the highest 2% near 0.26. Some of the results follow.
# Biological target: T1, Cin5 (UniProt P40917)
# T1 sequence: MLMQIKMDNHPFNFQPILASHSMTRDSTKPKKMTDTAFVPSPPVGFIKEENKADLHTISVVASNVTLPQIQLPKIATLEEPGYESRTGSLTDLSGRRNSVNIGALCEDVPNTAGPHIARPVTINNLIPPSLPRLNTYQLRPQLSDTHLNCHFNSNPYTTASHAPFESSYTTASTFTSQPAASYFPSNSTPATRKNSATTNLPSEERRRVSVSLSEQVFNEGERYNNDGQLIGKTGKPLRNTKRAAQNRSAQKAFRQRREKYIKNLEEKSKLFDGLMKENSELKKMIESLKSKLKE
# Assay: PBM E-score (8-mer binding enrichment) (E-score (-0.5 to 0.5)); higher = stronger / more preferred TF binding
# Settings: protein concentration: 100 nM; construct: GST-full length
# How it was run: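 E-scores (a modified Wilcoxon-Mann-Whitney statistic) were assigned by the Universal PBM Analysis Suite to every ungapped eight-base word pooled with its reverse complement. The input came from universal all-10-mer Agilent arrays made double-stranded by primer extension and probed with GST-tagged yeast transcription factors at about 100-200 nM. Fluorescent anti-GST detected bound protein, and masliner normalised the scans.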
row,Sequence,PBM E-score
1,GAAAGACC,-0.21
2,CGACTCTC,-0.119
3,ACGGTTCG,-0.122
4,CTGTGTAA,0.00241
5,TAGGGAAA,-0.0611
6,AATCATAT,0.193
7,CAGGATAC,-0.125
8,CTTTCATA,0.168
9,GTGACAAC,0.192
10,AAGCCTCC,-0.0716
11,ACGTTCGA,-0.127
12,AAAATGTA,0.155
13,ATGACCAG,0.0221
14,AGATGAAC,0.131
15,CTTGATTA,0.222
16,GGTGGACA,0.0474
17,AAATTCGG,0.139
18,CTATATCA,0.195
19,ATAGAGTG,0.0858
20,CCCGCTCC,-0.407
21,CAGGCACG,-0.0572
22,AAGGCCGC,-0.141
23,AGATTGGC,-0.123
24,CGGGGTTA,0.106
25,GGTTGCGA,0.0424

row,Sequence,PBM E-score
1,AAGTTGCG,0.0948
2,AATGTTGC,0.0262
3,ATAGCAAT,0.236
4,CCCAGGGG,-0.286
5,ACAAGACT,-0.039
6,GGTAGCCA,-0.0008
7,AGAGCAGG,-0.0422
8,TATCGAGA,0.0397
9,CTGACCAC,0.0212
10,GCCAAGAC,-0.0683
11,ATTCGCCA,0.219
12,AAAATCTC,0.0967
13,CTTCGAGC,-0.0333
14,CATTAAAA,0.248
15,ATGCTAAT,0.154
16,CGTGATGA,-0.0266
17,GAGCTTAC,0.191
18,AAGTCGCT,-0.117
19,GGAGGCCC,-0.383
20,CGCCGGGC,0.00796
21,TCACCTCA,0.0413
22,TATTGTAA,0.154
23,CGGCTCAA,0.0671
24,AGGCCTCC,-0.215
25,ATTGGCTG,-0.141

row,Sequence,PBM E-score
1,GGATTCAC,0.0079
2,GCTAACCA,-0.182
3,AGCCCTAG,-0.0694
4,GACCAAAA,0.129
5,GCGGATAA,0.23
6,AACTCAGT,0.0563
7,CCCGGGGC,-0.24
8,ATGTACAC,0.08
9,GAACCATC,0.077
10,CACGCGGA,0.221
11,CCCTGACG,-0.106
12,AAAGCATA,0.0544
13,ATCTATAA,0.0358
14,GGGCTCCA,-0.356
15,CAGGTACA,-0.0853
16,CATATTCC,-0.0533
17,CCACCCAG,0.0499
18,AACTACAC,0.058
19,CCGCCAAA,0.154
20,TACACAAA,0.133
21,GTATGGAA,-0.0473
22,GATAGTCA,0.0148
23,GCTCTTAA,-0.0595
24,GGGGTAGA,0.126
25,CCTGTGAA,0.113

row,Sequence,PBM E-score
1,AATAGCTA,0.122
2,GGCTGAAC,-0.0795
3,GCGTCTTA,-0.173
4,ATGAAATG,0.163
5,CCGACACC,-0.303
6,AGGAAGTG,0.0864
7,GTACGTGA,-0.117
8,ACGATGCC,-0.373
9,ATCAACAA,0.2
10,CTAAAGCC,-0.254
11,ATAAGTTG,0.079
12,ACGACGTA,-0.0239
13,GCGCAACA,-0.0833
14,CCGGTAAC,-0.0256
15,ATACGGTG,0.0771
16,AACTACCT,0.143
17,CGTGTTAG,0.112
18,GCATGTTA,0.145
19,GAAAGGTC,-0.117
20,ACTTGACG,-0.0687
21,ACCCTCTG,-0.238
22,AAGGCCTA,-0.19
23,CTTTGCGA,0.0308
24,GGTTGATA,0.13
25,GAGAGGCC,-0.262

row,Sequence,PBM E-score
1,AATTGTGT,0.126
2,CTAGTTTA,-0.0284
3,CGCGCTTA,0.297
4,CATTTACA,0.063
5,ACTCATAT,0.0469
6,AAAGTGGA,-0.0711
7,AGGACGAG,-0.0866
8,ATACTTTA,0.206
9,ATCTCTAG,-0.076
10,CCGTCCCC,-0.289
11,CTGCATAC,0.109
12,TAGACAAA,-0.00829
13,CCAGGCCA,-0.259
14,AATGTTCG,0.0491
15,AACTCAAT,0.165
16,AACAATGG,0.125
17,GCGAATAC,0.15
18,CGGTACCC,-0.242
19,CCGCATGC,-0.0803
20,AACTGGCA,-0.0613
21,CCCAGCAG,-0.0156
22,CAAGTTAA,0.0667
23,ACTATACT,0.226
24,TTCCCCAA,0.175
25,CAGCATCA,0.0444

row,Sequence,PBM E-score
1,GCCATTTA,0.0536
2,TATTTTGA,-0.0424
3,CAAAGGCA,-0.156
4,TCGTCCAA,0.0546
5,GCATGCCA,-0.209
6,ATGGGAAT,-0.189
7,CACGCTTC,-0.169
8,CTGTTCAA,0.00171
9,GTGCGCTA,0.0868
10,AAATAGCT,0.0764
11,CCCATTTC,-0.0197
12,AAACGACT,0.0211
13,CTATCATA,0.21
14,CGTGTACC,-0.106
15,CACATACG,-0.0221
16,CAGTTGGC,-0.172
17,ACGCGATA,0.0786
18,GGCCATTA,0.0264
19,CGAGGAAC,0.0849
20,ATTCTGGA,0.0113
21,AGAAATGC,0.136
22,ACTATTAA,0.162
23,AAGCAGCA,-0.00515
24,ATTAGTCA,0.341
25,GTTGCCAA,-0.0741

# Fetched one by one from above (five):
row,Sequence,PBM E-score
7,CACGCTTC,-0.169
16,GGTGGACA,0.0474
10,AAATAGCT,0.0764
14,AATGTTCG,0.0491
24,TTCCCCAA,0.175

# (listing goes on)

row,Sequence,PBM E-score
1,AATATCGG,0.179
2,CGGTCTGA,-0.077
3,AATCGCAG,0.155
4,TCAGACAA,0.0252
5,CAGATAAA,0.11
6,GGGCGATA,-0.253
7,GTGCCCCA,-0.162
8,AATTTCTA,0.0624
9,AAACCCGG,0.0754
10,ATTGGATG,0.0851
11,GATCTTTA,0.0443
12,AGGTCTTC,-0.214
13,GACCACCA,-0.00784
14,ACCTAGCT,-0.136
15,AATGGAGT,0.0271
16,ATGTCCTG,0.0532
17,AAAATCAT,-0.00949
18,CGAACAGA,0.0198
19,ACCAAACC,0.0718
20,ACCGACAT,0.154
21,GTCGCGAA,-0.0343
22,TATCCGAA,0.105
23,CCGGGTTC,-0.00014
24,GAGAGCCA,-0.169
25,CCAGGCTC,-0.111

# Four neighbouring records already listed, quoted:
row,Sequence,PBM E-score
6,GGGCGATA,-0.253
7,GTGCCCCA,-0.162
8,AATTTCTA,0.0624
9,AAACCCGG,0.0754

# The listing continues:

row,Sequence,PBM E-score
1,GCCAGGTA,-0.136
2,AAGATCAC,0.00189
3,AACGTTAC,0.0684
4,AACTATAC,0.0815
5,GCGATGCA,-0.141
6,GAAGATCA,0.045
7,CCTGGGAG,-0.176
8,GGGTGACC,-0.162
9,AAGGGCTA,-0.195
10,CGAGGATC,0.00246
11,GACATTCC,-0.11
12,CCGCCCAC,0.101
13,CACTCATG,0.048
14,CTTGCACC,0.0355
15,ACGCACAG,-0.0217
16,AGGCGCTA,-0.00892
17,CAAAACAA,0.0938
18,AGTTCATC,0.0362
19,AAGGATGT,0.0893
20,GGCGGGTA,-0.194
21,CACCGTTA,-0.00561
22,AGGCTAAA,-0.167
23,AAATATTG,0.222
24,CCGGCAAG,0.0607
25,GTCTATGA,0.0619

row,Sequence,PBM E-score
1,GGCGACAC,-0.212
2,CGTCTCGA,0.0556
3,AATGATTA,0.335
4,AAGGATCC,-0.108
5,GTAAACAA,0.237
6,CGCCATCC,-0.0115
7,ATGGGAAA,-0.0979
8,CAAAAGTC,-0.0102
9,ATAGCTCC,-0.144
10,CACTCCAA,0.0371
11,GCTATACA,0.0282
12,ACCATAGT,0.0297
13,GTGTCTTA,0.00212
14,GACTCGGC,-0.309
15,AGTACGCG,0.127
16,GCGTAATA,0.121
17,TATCCCCA,0.176
18,GAATAGTC,0.0917
19,GTTCAATA,0.0984
